Consider one substance from publication PMC8394784 (International Journal of Molecular Sciences, 2021).

Some peptides are written in HELM: one residue between dots, names in brackets for other building blocks, links after the first $.

A short description of data set [1]: general procedure: Fmoc solid-phase peptide synthesis; Rink amide resin; Oxyma pure / DIC. To be noted: whole synthesis.
The nature of data set [2]: general procedure: Fmoc solid-phase peptide synthesis; 2-chlorotrityl resin preloaded with the 1,2-amino alcohol (K6-Lol); Rink amide resin (K6-NH2); preloaded 2-chlorotrityl; Oxyma pure / DIC. Conditions: whole synthesis, high resolution mass spectrometry, 1D NMR.

For “PEPTIDE1{[Oct].[Aib].G.L.[Aib].G.K.L.[Aib].G.I.L.[am]}$$$$V2.0”, the isolated yield in data set [1] is 91%. In addition, the “final HPLC purity” value in data set [2] worked out at 98%.
